Measurements from PubChem BioAssay AID1671190 (National Center for Advancing Translational Sciences (NCATS), 2021).
Out of some 580,000 compounds screened, about 6,100 (1.1%) were called active. Inconclusive results, whose numbers are uncertain, are shown with a selection of clear calls. Calls follow the shape of the dose curve; as a rule, active = well fitted inhibition curve with a large enough effect; inconclusive = small, poorly fitted or top-dose-only effect, or another doubt; inactive = no such curve, though single readings can be large or run the other way. A potency beside an inconclusive call is a rough fit, not a confirmed value.

By UniProt entry, the sequences of proteins in these tests, tags left out. Where a name states a change or a piece, a line headed by the entry shows the natural chain unless it says otherwise.
UniProt P18054: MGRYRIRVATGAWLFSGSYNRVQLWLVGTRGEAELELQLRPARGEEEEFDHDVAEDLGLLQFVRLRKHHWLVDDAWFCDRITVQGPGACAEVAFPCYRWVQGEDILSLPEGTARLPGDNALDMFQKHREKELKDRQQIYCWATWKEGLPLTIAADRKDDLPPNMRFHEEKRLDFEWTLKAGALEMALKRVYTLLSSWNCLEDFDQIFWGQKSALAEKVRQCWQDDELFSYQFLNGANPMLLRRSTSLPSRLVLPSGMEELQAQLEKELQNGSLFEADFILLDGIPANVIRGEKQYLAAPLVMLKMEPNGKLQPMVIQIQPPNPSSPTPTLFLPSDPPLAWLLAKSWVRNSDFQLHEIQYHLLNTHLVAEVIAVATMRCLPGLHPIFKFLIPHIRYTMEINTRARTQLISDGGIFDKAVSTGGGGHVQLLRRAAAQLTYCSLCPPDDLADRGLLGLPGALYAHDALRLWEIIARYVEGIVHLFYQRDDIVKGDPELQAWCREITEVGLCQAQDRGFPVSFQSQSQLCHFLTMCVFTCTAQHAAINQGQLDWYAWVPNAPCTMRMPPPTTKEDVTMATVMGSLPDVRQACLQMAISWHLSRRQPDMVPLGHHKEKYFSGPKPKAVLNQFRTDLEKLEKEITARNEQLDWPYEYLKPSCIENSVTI

These compounds were tested against Polyunsaturated fatty acid lipoxygenase ALOX12 (Homo sapiens) (UniProt P18054) (assay: Primary qHTS assay for inhibitors of human arachidonate 12S-lipoxygenase (ALOX12): Round 2). Conditions: purified 12hLO, xylenol orange hydroperoxide absorbance; activity change, negative = inhibition: at 108 µM (top of the series) unless noted.
Outline: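 Hydroperoxide product was detected by ferrous iron/xylenol orange as the 573 to 405 nm absorbance ratio. Arachidonic acid at 40 uM (final) was turned over for 30 min at room temperature by 150 nM human 12hLO, pH 7.0 Hepes buffer, after 15 min compound preincubation.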
% is scaled to controls: 0 for no effect and ±100 for the full control effect; potency is read from the fitted curve at half-maximal effect.

Compound	activity change, negative = inhibition	Potency
S=C(Nc1ccccc1)N1CCN(c2ccccc2)CC1	inactive: 0.447%	–
CCN(Cc1cc(=O)n2ccsc2n1)c1cccc2ccccc12	–	inconclusive: 39.8 µM [inhibitor, partial curve, poor fit]
COc1cc(OC)c(NC(=O)CN2C(=O)NC(c3ccc(C)cc3)C3=C2COC3=O)cc1Cl (centres undefined)	–	inconclusive: 11.2 µM [inhibitor, full curve, poor fit]
CC(=O)N1CCN(C(=O)CSc2nnc(Nc3ccc(C)cc3C)s2)CC1	–	inconclusive: 50.1 µM [inhibitor, partial curve, poor fit]
COc1cc(NC(=O)NCc2ccco2)ccc1-c1ccc(NC(=O)NCc2ccco2)cc1OC	–	inconclusive: 31.6 µM [inhibitor, partial curve, poor fit]
O=C(CCc1nc2ccccc2[nH]c1=O)OCc1cccc(Cl)c1	–	inconclusive: 44.7 µM [inhibitor, partial curve, poor fit]
Cc1cc(C)cc(NC(=O)CSc2nc3[nH]c(=O)cc(O)c3s2)c1	–	inconclusive: 56.2 µM [inhibitor, partial curve, poor fit]
CCOc1ccc(NC(=O)c2cnn(-c3ccc(C)cc3)c2-n2cccc2)cc1	–	inconclusive: 112 µM [inhibitor, single point]
COc1ccc2oc3c(ccc[n+]3C)c(=O)c2c1	–	active: 12.6 µM
Cc1ccc(Cn2nnnc2CN2CCC(O)(c3cccnc3)CC2)cc1	–	inconclusive: 25.1 µM [inhibitor, partial curve]
CCCn1c(N2CCN(C(=O)c3ccc(OC)cc3)CC2)nc2sc3c(c2c1=O)CCCC3	–	inconclusive: 50.1 µM [inhibitor, partial curve, poor fit]
CCc1[nH]nc(C(=O)N2CC[C@H](N3CCOCC3)[C@H](CCC(=O)O)C2)c1C	inactive: 6.53%	–
CC1CCN(CCc2nc3cc(NC(=O)COc4ccc([N+](=O)[O-])cc4)ccc3n2C)CC1	inactive: 13.7%	–
C/C(=N/Nc1ccc2ccccc2c1)c1ccccc1	–	active: 2 µM
CCCCNC(=O)Cc1csc2nc(C)c(-c3cc(C)n(-c4ccc(C)cc4)n3)c(=O)n12	–	inconclusive: 22.4 µM [inhibitor, full curve]
CCOC(=O)C1CCCN(CCOc2cccc(C(F)(F)F)c2)C1 (centres undefined)	–	inconclusive: 39.8 µM [inhibitor, partial curve, poor fit]
Cc1c(C(=O)CN2CCOCC2)[nH]c2ccccc12	–	inconclusive: 28.2 µM [inhibitor, single point]

Compound	activity change, negative = inhibition	Potency
COc1ccc(OC)c(CCNC(=O)c2ccc3c(c2)N(Cc2ccc(C)cc2)CCS3)c1	–	inconclusive: 89.1 µM [inhibitor, partial curve, poor fit]
Cc1cc(Cl)ccc1NC(=S)NCCc1ccc(S(N)(=O)=O)cc1	–	inconclusive: 56.2 µM [inhibitor, partial curve, poor fit]
O=C(N/N=C/c1ccc(-c2cccc([N+](=O)[O-])c2)o1)c1ccc([N+](=O)[O-])cc1	inactive: 12.4%	–
O=C(CCC1CCCN(C(=O)c2cncs2)C1)NCc1ccc(F)c(F)c1 (centres undefined)	inactive: 1.85%	–
Cc1ccc(-c2nnc(Nc3ccc(O)cc3)c3ccccc23)cc1S(=O)(=O)N1CCN(C)CC1	–	inconclusive: 56.2 µM [inhibitor, partial curve, poor fit]
CCOc1ccc(NC(=S)C(C#N)=C2N(C)c3ccccc3N2C)cc1	–	inconclusive: 89.1 µM [inhibitor, partial curve, poor fit]
CN(C)CCCN(C(=O)COc1ccccc1)c1nc2cc3c(cc2s1)OCCO3	–	inconclusive: 39.8 µM [inhibitor, partial curve, poor fit]
CCCNC(=S)Nc1ccc(Cl)cc1Cl	–	inconclusive: 44.7 µM [inhibitor, partial curve, poor fit]
COc1ccc(Nc2cc(C(=O)NCCc3ccc(C)cc3)c3ccccc3n2)c(OC)c1	–	inconclusive: 141 µM [inhibitor, partial curve, poor fit]
CC(C)CNC(=S)N(CCN(C)C)Cc1cc2cc3c(cc2[nH]c1=O)OCCO3	–	inconclusive: 7.94 µM [inhibitor, full curve]
Cc1cc(S(=O)(=O)[C@H]2CS(=O)(=O)C[C@@H]2N2CCN(c3ccc(F)cc3)CC2)ccc1F	inactive: 29.5%	–
Nc1cc(N)nc(SCCC(=O)Nc2cccc(Cl)c2)n1	–	inconclusive: 35.5 µM [inhibitor, partial curve, poor fit]
COc1ccc2cc1Nc1ccc(cc1)C[C@H](NCc1ccc(O)cc1)C(=O)N(C)[C@H](C(=O)NCCOc1ccccc1)C2	inactive: 0.991%	–
Cc1noc2nc(-c3ccccc3)cc(C(=O)NCc3ccc(N4CCOCC4)nc3)c12	inactive: -41%	–
CSc1ccc(C2CC(=O)Nc3nc(N)sc32)cc1 (centres undefined)	–	active: 25.1 µM
CCCCCCOc1ccccc1/C=N/N=C(N)N	–	inconclusive: 158 µM [inhibitor, partial curve, poor fit]
COc1ccc(C2C(C#N)=C(N)N(c3ccc(C)cc3)C3=C2C(=O)CCC3)cc1 (centres undefined)	–	inconclusive: 126 µM [inhibitor, single point]

Part of the list above in order of length of the SMILES, largest number first.
Compound	activity change, negative = inhibition	Potency
Cc1ccc(-c2nnc(Nc3ccc(O)cc3)c3ccccc23)cc1S(=O)(=O)N1CCN(C)CC1	–	inconclusive: 56.2 µM [inhibitor, partial curve, poor fit]
CC(C)CNC(=S)N(CCN(C)C)Cc1cc2cc3c(cc2[nH]c1=O)OCCO3	–	inconclusive: 7.94 µM [inhibitor, full curve]
Cc1cc(Cl)ccc1NC(=S)NCCc1ccc(S(N)(=O)=O)cc1	–	inconclusive: 56.2 µM [inhibitor, partial curve, poor fit]
